# Screening data, single-dose tests

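Whole-parasite assay of Trypanosoma brucei over 72 hours; the read-out is not stated. Tested at 30 µM. Direction is inferred from retests: higher values go with stronger inhibition. Values scatter widely below zero; nearly all retest evidence comes from the higher of the two concentrations used. Size under these conditions: about 64,000 compounds, about 940 of them at 50% or above in at least one test.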

The filed quantity is “Percent Effect” (%).
The controls that fix the scale are not given in the record; negative values are as filed.
This is an unselected part of the compounds tested.

* CCCn1cnnc1CNC(=O)CC1C(=O)NCCN1C(C)C (stereo not drawn) : -15.86%
* Cc1ccc(CNC(=O)NCC(=O)NC(C)(C)C)c(N2CCCC2)c1 : -16.22%
* Cc1ccsc1C(=O)N1C[C@@H](C(=O)O)[C@H](C(C)C)C1 : -41.09%
* CO[C@H]1COCCN(C(=O)c2ccc(C(F)(F)F)cc2)C1 : -8.249%
* CCOCCC1(CNC(=O)c2ccncc2Cl)CCC1 : 1.46%
* Cn1cc(C2CC(=O)NC23CCN(C(=O)c2cccnc2)CC3)cn1.O=C(O)C(F)(F)F (stereo not drawn) : -12.36%
* CC(C)Nc1nc2c(c(NC3CC3)n1)CN(C(=O)c1ccnnc1)CC2 : -58.54%
* CCc1ccc(CN2C[C@@H](C)C3(CCN(CC(=O)N(C)C)C3=O)C2)o1.O=C(O)C(F)(F)F (stereo partly drawn) : 4.737%
* O=C(O)C(F)(F)F.O=C(c1cscn1)N1CCCC2(CCN2Cc2cccc(F)c2)C1 (stereo not drawn) : 27.36%
* Cc1ncsc1C(=O)N[C@@H](Cc1ccccc1)C(N)=O : -38.86%
* O=C(NCc1cc[nH]n1)NCC(O)c1ccc(F)cc1 (stereo not drawn) : -23.38%
* COc1c(CNCc2cccc(CS(C)(=O)=O)c2)c(C)nn1C : -21.06%
* CN(CCc1ccncc1)Cc1nccn1Cc1ccccc1 : -29.05%
* [H][C@@]12CN(C(=O)C3CCOCC3)C[C@@]1([H])N(CC(C)C)C(=O)CO2 : -11.59%
* O=C(NCC(F)(F)F)C1CSCN1S(=O)(=O)c1ccc(F)cc1Cl (stereo not drawn) : 4.778%
* Cc1cc(NC(=O)CNc2ccc(Br)cc2F)on1 : -21.05%
* Cc1nc(-c2cccc(N3CCC(N4CCCC(C#N)C4)CC3)c2)cs1 (stereo not drawn) : -29.26%
* CC(C)c1nc(C2CCCN(C(=O)c3ccc4nccn4c3)C2)no1 (stereo not drawn) : -19.53%
* CC(C(=O)N(C)C)N1CCCN(C(=O)Oc2ccccc2)CC1 (stereo not drawn) : -3.947%
* O=C(O)C(F)(F)F.[H][C@@]12OCCN(C(=O)c3cc(C)[nH]c3C)[C@@]1([H])CC[C@H]2OCCN(C)C : -47.88%
* CC1Oc2c(cccc2C(=O)N2CCCCCC2)NC1=O (stereo not drawn) : -48.52%
* CC(C)Cc1noc(CN2CCN(c3nccs3)CC2)n1 : -24.67%
* CC(NC1CCN(C(=O)C2CCCCC2)CC1)c1nccs1 (stereo not drawn) : -23.31%
* CCc1nc(CN2CCCC2C(=O)NC2CC2)cs1 (stereo not drawn) : 2.056%
* CCc1cnc(CN(C)C(=O)Nc2cnn(CC3CCCO3)c2)s1 (stereo not drawn) : -19.67%
* O=S1(=O)CCCN1Cc1coc(-c2ccc(C(F)(F)F)cc2)n1 : -18.44%
* COc1ccc(CNCc2ccnc(N3CCOCC3)c2)cc1OC : -15.93%
* Cc1ccc(Cl)c(C)c1NC(=O)N1CCCN(Cc2ccccn2)CC1 : -74.28%
* CC(C)(C)C(O)CN1CCN(C(=O)COCC2CC2)CC1 (stereo not drawn) : -12.49%
* CC(C)(C(=O)NCC(N)=O)c1ccccc1F : 6.464%
* CCn1cc(-c2cc(C(F)F)n3nc(CCC(=O)O)nc3n2)cn1 : -6.661%
* Cc1cc(C(=O)N2CCc3nnc(N(C)C)cc3C2)c(C)n1C1CC1 : 3.134%
* O=C(Nc1ccccc1)C1CN(CC2CCOCC2)CC12CCOCC2.O=C(O)C(F)(F)F (stereo not drawn) : -30.16%
* CC(c1cccnc1)N(C)Cc1cc(O)c2cc(F)ccc2n1 (stereo not drawn) : -16.14%
* Cc1c[nH]cc1C(=O)N1CCN(Cc2nc(C(C)C)no2)CC1 : 9.222%
* CN1CCc2nc(C3CCCN(S(=O)(=O)c4ccccc4)C3)ncc2C1 (stereo not drawn) : -19.99%
* COC(=O)c1sc2cccc(F)c2c1CNC(=O)C1CCCO1 (stereo not drawn) : 5.174%
* O=C(c1cccc2ccnn12)N1CCC[C@H]1CN1CCCC1 : -44.54%
* Cc1ccc(C(=O)N2CCC3(CCC(=O)N(CC(N)=O)C3)CC2)cc1 : -16.09%
* O=C(O)C(F)(F)F.O=C(O)C(F)(F)F.O=C(O)C(F)(F)F.[H][C@@]12C[C@@H](OCCN3CCCC3)CN1CCN(C(=O)Cc1ccccn1)C2 : -405.9%
* O=C(O)C(F)(F)F.[H][C@@]12CN(Cc3ccccc3F)C[C@H](C(=O)N3CCCO3)[C@]1([H])CCO2 : -11.86%
* N#Cc1cccc(S(=O)(=O)N(CC2CCC2)c2cn[nH]c2)c1 : -27.94%
* Cc1cc(C(=O)NCc2ccnc(OCC(F)(F)F)c2)no1 : 6.241%
* CCc1nnc(CN2CCCCC2Cn2nc(C)nc2C)o1 (stereo not drawn) : -13.83%
* CNC(=O)c1c(C)cccc1NCc1noc(C2CC2)n1 : -1.175%
* CN(C)c1ncc(NC(=O)N2CCC(CN3CCCC3)C2)cn1 (stereo not drawn) : -20.29%
* Cn1c(NCC(=O)N2CCCCC2)c(C#N)c(=O)n(C)c1=O : 4.627%
* O=C(O)C(F)(F)F.O=C(O)C(F)(F)F.O=C(O)C(F)(F)F.[H][C@@]12CN(Cc3ccncc3)C[C@]1([H])[C@@H](OC)CCN2Cc1cnn(C)c1 : -39.83%
* O=C(c1ccn(-c2cccc(Cl)c2)n1)N1CCN(CCO)CC1 : 2.391%
* COCC1CN(C(=O)CNC(C)=O)Cc2ncnn2C1 (stereo not drawn) : -8.478%
* N#Cc1ccccc1N1CCCN(CC(=O)Nc2ccccc2Cl)CC1 : -6.718%
* O=C1CC[C@]2(CC[C@@H](NC(=O)NCc3ccccc3)CC2)N1 : -21.31%
* Cc1ccc(-c2nc(CN(Cc3ccco3)C3CCS(=O)(=O)C3)cs2)o1 (stereo not drawn) : -36.79%
* Cc1ccccc1-c1cc(CC2(C(=O)O)CCOCC2)on1 : 4.158%
* CCOc1ccc(-n2ccc3nc(N4CCCC4)ncc3c2=O)cc1 : -16.15%
* Cc1nn(C)c(C)c1OCC(=O)NCc1cccc(CO)c1 : 0.5682%

Once more, the final 4:

structure,percent effect
Cc1ccc(-c2nc(CN(Cc3ccco3)C3CCS(=O)(=O)C3)cs2)o1 (stereo not drawn),-36.79
Cc1ccccc1-c1cc(CC2(C(=O)O)CCOCC2)on1,4.158
CCOc1ccc(-n2ccc3nc(N4CCCC4)ncc3c2=O)cc1,-16.15
Cc1nn(C)c(C)c1OCC(=O)NCc1cccc(CO)c1,0.5682

Data taken from ChEMBL document CHEMBL3988442, “University of Dundee, Small-Polar-MMV Screening Library” (2021).